Data published in PMC9278437 (Journal of Enzyme Inhibition and Medicinal Chemistry, 2022).

Tested on: WI-38 normal lung cells
Test: In vitro cytotoxicity against normal cells WI-38
Assay type: cell-based
Settings: Homo sapiens, WI-38, read-out: In vitro IC50 (µM) as Mean ± SD Normal cell WI-38

CN[C@@H]1C[C@H]2O[C@@](C)([C@@H]1OC)n1c3ccccc3c3c4c(c5c6ccccc6n2c5c31)C(=O)NC4 [Staurosporine]
IC50: 57.6 ± 1.42 µM
